Publication PMC11369598
Substitutions are numbered along the chain they refer to. Like-named read-outs stand apart in the source and are kept apart here. Results are given in words; binding and its absence hold for the method and conditions named. Binding seen in cells or lysates may run through a third protein. Here binding means that the protein was enriched with, or labelled near, the bait; the list need not be complete. For part of these data: A no says only that the protein was not detected with the bait. Sequences can lack the tags named with a protein. One block for each molecule: values may come before it.

Amino acid sequences for entries named in this document (tags omitted).
UniProt Q8IXQ5: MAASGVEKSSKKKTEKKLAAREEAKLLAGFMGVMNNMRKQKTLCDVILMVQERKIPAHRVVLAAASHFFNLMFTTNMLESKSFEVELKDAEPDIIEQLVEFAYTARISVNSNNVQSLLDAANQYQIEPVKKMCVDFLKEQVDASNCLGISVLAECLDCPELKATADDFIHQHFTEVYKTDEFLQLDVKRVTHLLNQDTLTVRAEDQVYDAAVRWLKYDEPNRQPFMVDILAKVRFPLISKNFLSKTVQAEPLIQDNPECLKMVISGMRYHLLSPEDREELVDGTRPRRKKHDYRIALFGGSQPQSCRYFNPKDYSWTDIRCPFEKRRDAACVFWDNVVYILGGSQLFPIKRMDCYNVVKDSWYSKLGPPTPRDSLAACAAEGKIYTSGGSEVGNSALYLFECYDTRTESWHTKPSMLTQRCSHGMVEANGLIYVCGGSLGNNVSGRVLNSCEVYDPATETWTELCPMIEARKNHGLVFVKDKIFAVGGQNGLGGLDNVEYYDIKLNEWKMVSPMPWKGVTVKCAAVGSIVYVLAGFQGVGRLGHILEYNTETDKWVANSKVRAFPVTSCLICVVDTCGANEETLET

How the values were obtained:
[1] = target: T1, KLHL6 L65P, C-terminal Strep-HA tag (human) (UniProt Q8WZ60); test: affinity purification with mass spectrometry; C-terminally Strep-HA-tagged KLHL6 baits stably expressed in SuDHL5; lysis in 0.5% IGEPAL, 50 mmol/L HEPES pH 8.0, 150 mmol/L NaCl, 5 mmol/L EDTA; one-step purification on Strep-Tactin Sepharose; EmGFP controls; SAINT and DESeq2; also done 60 seconds after BCR cross-linking with anti-human IgM F(ab')2 or control goat IgG
T1 sequence: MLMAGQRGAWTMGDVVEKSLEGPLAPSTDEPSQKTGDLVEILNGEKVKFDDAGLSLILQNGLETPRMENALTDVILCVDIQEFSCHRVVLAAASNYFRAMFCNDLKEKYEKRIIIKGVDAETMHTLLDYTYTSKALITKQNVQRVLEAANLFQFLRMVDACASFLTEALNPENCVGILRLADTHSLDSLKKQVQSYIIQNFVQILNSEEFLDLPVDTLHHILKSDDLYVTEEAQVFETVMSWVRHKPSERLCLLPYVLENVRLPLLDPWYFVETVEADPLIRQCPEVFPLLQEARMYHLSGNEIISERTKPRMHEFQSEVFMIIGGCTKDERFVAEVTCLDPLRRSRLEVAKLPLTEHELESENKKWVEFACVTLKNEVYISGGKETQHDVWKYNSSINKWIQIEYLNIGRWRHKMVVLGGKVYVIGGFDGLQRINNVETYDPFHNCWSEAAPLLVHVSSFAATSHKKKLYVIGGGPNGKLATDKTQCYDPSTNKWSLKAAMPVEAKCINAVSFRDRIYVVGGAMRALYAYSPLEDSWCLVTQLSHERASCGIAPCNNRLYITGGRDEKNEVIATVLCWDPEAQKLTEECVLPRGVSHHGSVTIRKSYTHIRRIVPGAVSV

[2] = target: T2, KLHL6 E568K, C-terminal Strep-HA tag (human) (UniProt Q8WZ60); test: as above
T2 sequence: T1 sequence with P65L, E568K

[3] = target: T3, KLHL6 wild type, C-terminal Strep-HA tag (KLHL6-strHA) (human) (UniProt Q8WZ60); test: as above
T3 sequence: T1 sequence with P65L

[4] = target: T4, KLHL6 L90F, C-terminal Strep-HA tag (human) (UniProt Q8WZ60); test: as above
T4 sequence: T1 sequence with P65L, L90F

[5] = target: T2, KLHL6 E568K, C-terminal Strep-HA tag (human); test: as above; remark: listed apart in the source
[6] = target: T3, KLHL6 wild type, C-terminal Strep-HA tag (KLHL6-strHA) (human); test: as above; remark: listed apart in the source
[7] = target: T4, KLHL6 L90F, C-terminal Strep-HA tag (human); test: as above; remark: listed apart in the source
[8] = target: T5, KLHL6 wild type fused to C-terminal BioID2 (human) (UniProt Q8WZ60); test: proximity labelling; KLHL6-BioID2 interactome in the ABC cell line U2932; mass spectrometry
T5 sequence: T1 sequence with P65L

[9] = target: T5, KLHL6 wild type fused to C-terminal BioID2 (human); test: proximity labelling; KLHL6 baits with C-terminal BioID2 stably expressed in SuDHL5, no added biotin; lysis with 0.1% SDS; biotinylated proteins purified on Strep-Tactin Sepharose; mass spectrometry; BioID2-tagged EmGFP controls

binding [1]: no binding
binding [2]: binds
binding [3]: binds
binding [4]: no binding
Molecule: KLHL7 (from UniProt Q8IXQ5 1-586)

binding [5]: binds
binding [6]: binds
binding [7]: binds
binding [8]: binds
binding [9]: binds
B1: adapter protein BANK1 (protein, UniProt Q8NDB2 1-785)
chain: MLPAAPGKGLGSPDPAPCGPAPPGNTKDIIMIYEEDAEEWALYLTEVFLHVVKREAILLYRLENFSFRHLELLNLTSYKCKLLILSNSLLRDLTPKKCQFLEKILHSPKSVVTLLCGVKSSDQLYELLNISQSRWEISTEQEPEDYISVIQSIIFKDSEDYFEVNIPTDLRAKHSGEISERKEIEELSEASRNTIPLAVVLPTEIPCENPGEIFIILRDEVIGDTVEVEFTSSNKRIRTRPALWNKKVWCMKALEFPAGSVHVNVYCDGIVKATTKIKYYPTAKAKECLFRMADSGESLCQNSIEELDGVLTSIFKHEIPYYEFQSLQTEICSQNKYTHFKELPTLLHCAAKFGLKNLAIHLLQCSGATWASKMKNMEGSDPAHIAERHGHKELKKIFEDFSIQEIDINNEQENDYEEDIASFSTYIPSTQNPAFHHESRKTYGQSADGAEANEMEGEGKQNGSGMETKHSPLEVGSESSEDQYDDLYVFIPGADPENNSQEPLMSSRPPLPPPRPVANAFQLERPHFTLPGTMVEGQMERSQNWGHPGVRQETGDEPKGEKEKKEEEKEQEEEEDPYTFAEIDDSEYDMILANLSIKKKTGSRSFIINRPPAPTPRPTSIPPKEETTPYIAQVFQQKTARRQSDDDKFCGLPKKQDRARIESPAFSTLRGCLTDGQEELILLQEKVKNGKMSMDEALEKFKHWQMGKSGLEMIQQEKLRQLRDCIIGKRPEEENVYNKLTIVHHPGGKETAHNENKFYNVHFSNKLPARPQVEKEFGFCCKKDH
